Measurements from patent publication US20240166753A1 (DRAGONFLY THERAPEUTICS, published 2024).
No constants are given. Whether binding was seen depends on the method and setting. Some binding calls cover weakened binding; strength is not graded here.

Amino acid sequences for entries named in this document (tags omitted). Residues count along the entry.
UniProt P20138, residues 18-364: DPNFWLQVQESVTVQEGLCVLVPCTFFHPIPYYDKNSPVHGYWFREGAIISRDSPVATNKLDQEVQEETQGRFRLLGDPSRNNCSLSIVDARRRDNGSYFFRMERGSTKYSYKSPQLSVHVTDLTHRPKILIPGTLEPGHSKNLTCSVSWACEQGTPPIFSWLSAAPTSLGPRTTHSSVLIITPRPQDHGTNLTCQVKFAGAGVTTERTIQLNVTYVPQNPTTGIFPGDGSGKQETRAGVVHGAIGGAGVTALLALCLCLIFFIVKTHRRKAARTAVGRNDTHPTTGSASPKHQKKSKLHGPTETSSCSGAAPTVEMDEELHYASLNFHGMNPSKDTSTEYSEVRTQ

Key:
[1] = biological target: T1, CD33 expressed on MV4-11 human AML cells (human, UniProt P20138 18-364); assay: flow cytometry on MV4-11 cells
T1 construct: whole, on cells; also called cell-expressed CD33

[2] = biological target: T1, CD33 expressed on MV4-11 human AML cells; assay: flow cytometry, 20 ug/mL, MV4-11 cells, fold over background
[3] = biological target: T1, CD33 expressed on MV4-11 human AML cells; assay: flow cytometry on MV4-11 cells, MFI fold over background

Measured: binding

B1: CD33-TriNKET-F04 (ADI-29404 and a CD33-binding domain) (bispecific antibody, V domains shown)
VH 1: QVQLQQWGAGLLKPSETLSLTCAVYGGSFSGYYWSWIRQPPGKGLEWIGEIDHSGSTNYNPSLKSRVTISVDTSKNQFSLKLSSVTAADTAVYYCARARGPWSFDPWGQGTLVTVSS
VL 1: DIQMTQSPSTLSASVGDRVTITCRASQSISSWLAWYQQKPGKAPKLLIYKASSLESGVPSRFSGSGSGTEFTLTISSLQPDDFATYYCEQYDSYPTFGGGTKVEIK
VH 2: QVQLVQSGAEVKKPGASVKVSCKASGYTFTDYVVHWVRQAPGQGLEWMGYINPYNDGTKYNEKFKGRVTMTRDTSISTAYMELSRLRSDDTAVYYCARDYRYEVYGMDYWGQGTLVTVSS
VL 2: DIVLTQSPASLAVSPGQRATITCTASSSVNYIHWYQQKPGQPPKLLIYDTSKVASGVPARFSGSGSGTDFTLTINPVEANDTANYYCQQWRSYPLTFGQGTKLEIK
binds: all assays above
